{
  "source": "PubChem BioAssay AID1347426",
  "about": "(Functional Genomics Laboratory (NCATS/FGL), 2020)",
  "note": "Among all 31,000 sequences or so, about 1,400 (4.5%) were called active.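 Rule for the calls: active = median seed-adjusted z-score above 1 or below -1; inactive = the rest.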 Some of the results follow.",
  "data": [
    {"assay": "Novel Modifiers of Survival Motor Neuron (SMN) Protein: Gene Identification via Genome-wide siRNA Screen;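 note: luminescence tracks full-length SMN protein made from the SMN2 reporter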", "conditions": "HEK293T SMN2-luciferase reporter, siRNA knockdown, 72 h; actives lie on both sides", "outline": "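Genome-wide siRNA screen (10418 genes, 3 siRNAs each, 1 pmol per well) by reverse transfection in HEK293T cells stably carrying an SMN2-luciferase reporter; luminescence after 72 hours, normalized to negative-control siRNA, log10-transformed, MAD-scored.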", "values": [
      {"sequence": "CCACGGUUCCAGGCUAUUATT against CASP7", "median seed-adjusted z-score": "inactive: 0.213"},
      {"sequence": "CACCUGCAGCCUUCACUUUTT against CCR1", "median seed-adjusted z-score": "inactive: 0"},
      {"sequence": "CACGUGAACUUGUACCGCUTT against ATP8A1", "median seed-adjusted z-score": "inactive: 0"},
      {"sequence": "CCGUGAAAAUGUGCGUAAATT against TAF1L", "median seed-adjusted z-score": "inactive: 0.289"},
      {"sequence": "GGUGGUCUCUUUAUAAUGATT against PHAX", "median seed-adjusted z-score": "inactive: -0.0716"},
      {"sequence": "GAUCAAAUGUGUGGCCUUUTT against LGALS1", "median seed-adjusted z-score": "inactive: 0.033"},
      {"sequence": "GAUCCAGACAGUUUACGAATT against MSH4", "median seed-adjusted z-score": "inactive: 0"},
      {"sequence": "CCGUAGAUUUUCAUGAAUATT against PCDHGA8", "median seed-adjusted z-score": "inactive: 0.00691"},
      {"sequence": "GGUCAUUGACUGUUCGUAUTT against CTSO", "median seed-adjusted z-score": "inactive: 0.322"},
      {"sequence": "GUUAUACUGUGAGAUCUAATT against GPR160", "median seed-adjusted z-score": "inactive: -0.278"},
      {"sequence": "CCAAUGAAUUUACUCUUGATT against CYP19A1", "median seed-adjusted z-score": "inactive: -0.321"},
      {"sequence": "GCCUUUGAUCAGACAAAUATT against QKI", "median seed-adjusted z-score": "inactive: -0.206"},
      {"sequence": "CAUGUUGUAUAGUAUGCUATT against PUS3", "median seed-adjusted z-score": "inactive: 0.584"},
      {"sequence": "ACGGUUCGCUGAAAAAGAATT against PITX3", "median seed-adjusted z-score": "inactive: 0"},
      {"sequence": "GAAGGGCUCCAAAUGGUAATT against PAICS", "median seed-adjusted z-score": "inactive: -0.725"},
      {"sequence": "GGAUCGAAAGCUUCGAUUUTT against ATP6V0A1", "median seed-adjusted z-score": "inactive: 0.103"},
      {"sequence": "GCUUAGUUCUGAAAACCGATT against SPRR2G", "median seed-adjusted z-score": "inactive: 0.358"},
      {"sequence": "CAACGGCUUCUGUCAUUUATT against SUCLG1", "median seed-adjusted z-score": "inactive: -0.63"},
      {"sequence": "CUGAUGCUCUGUAUCCCAATT against TNRC4", "median seed-adjusted z-score": "inactive: 0.801"},
      {"sequence": "CUGGGAGAGCUGCUAGAUATT against AMHR2", "median seed-adjusted z-score": "inactive: 0.557"},
      {"sequence": "CCUGGUUCGUCAUCAGAGATT against ZNF132", "median seed-adjusted z-score": "inactive: -0.484"},
      {"sequence": "GUAUCUAACUUAUCUACUATT against HTR5A", "median seed-adjusted z-score": "inactive: -0.0687"},
      {"sequence": "CUUUAUGACUUAGAGUUAATT against BAAT", "median seed-adjusted z-score": "inactive: 0.641"},
      {"sequence": "CGAGCUCUCUUCAAACGGATT against RPS6KA2", "median seed-adjusted z-score": "inactive: 0.139"},
      {"sequence": "GGCUCUAUCUGGAUCACAATT against LRRTM1", "median seed-adjusted z-score": "inactive: -0.528"},
      {"sequence": "GGAUCGUCCUCAAAUCCAATT against SLC10A1", "median seed-adjusted z-score": "inactive: -0.19"},
      {"sequence": "CGACCUUGUUGUCUCCAAATT against SYN3", "median seed-adjusted z-score": "inactive: -0.729"},
      {"sequence": "GACUGACCAUACUGAUAUUTT against NPY5R", "median seed-adjusted z-score": "inactive: 0.213"},
      {"sequence": "CCAGUAUGAGGUCGACUAUTT against KCNJ14", "median seed-adjusted z-score": "inactive: -0.526"},
      {"sequence": "CAGUGUAUCUUUUGCUGGATT against GPR81", "median seed-adjusted z-score": "inactive: 0.0718"}
    ]}
  ]
}
